Data reported in article PMC10237644.
No constants are given. Whether binding was seen depends on the method and setting. In cells and extracts the contact can be indirect. Some results given as binding are weak or reduced against the parent protein; the word gives no strength. Sequences can lack the tags named with a protein.

What was measured:
[1] = target: T1, Puf3-Flag (C-terminal Flag tag) (S. cerevisiae) (UniProt Q07807); experiment: co-IP; anti-Flag M2 on Dynabeads Protein G added to cleared yeast lysates, 1–2 h at 4°C; lysis buffer 50 mM HEPES pH 7.5, 150 mM NaCl, 10 mM MgCl2, NP-40; wash 50 mM HEPES pH 7.5, 150 mM NaCl, 1 mM EDTA, 0.2% NP-40; HA blot; cells grown in YPD and switched to YPL (time points, mostly 3 h)
T1 sequence: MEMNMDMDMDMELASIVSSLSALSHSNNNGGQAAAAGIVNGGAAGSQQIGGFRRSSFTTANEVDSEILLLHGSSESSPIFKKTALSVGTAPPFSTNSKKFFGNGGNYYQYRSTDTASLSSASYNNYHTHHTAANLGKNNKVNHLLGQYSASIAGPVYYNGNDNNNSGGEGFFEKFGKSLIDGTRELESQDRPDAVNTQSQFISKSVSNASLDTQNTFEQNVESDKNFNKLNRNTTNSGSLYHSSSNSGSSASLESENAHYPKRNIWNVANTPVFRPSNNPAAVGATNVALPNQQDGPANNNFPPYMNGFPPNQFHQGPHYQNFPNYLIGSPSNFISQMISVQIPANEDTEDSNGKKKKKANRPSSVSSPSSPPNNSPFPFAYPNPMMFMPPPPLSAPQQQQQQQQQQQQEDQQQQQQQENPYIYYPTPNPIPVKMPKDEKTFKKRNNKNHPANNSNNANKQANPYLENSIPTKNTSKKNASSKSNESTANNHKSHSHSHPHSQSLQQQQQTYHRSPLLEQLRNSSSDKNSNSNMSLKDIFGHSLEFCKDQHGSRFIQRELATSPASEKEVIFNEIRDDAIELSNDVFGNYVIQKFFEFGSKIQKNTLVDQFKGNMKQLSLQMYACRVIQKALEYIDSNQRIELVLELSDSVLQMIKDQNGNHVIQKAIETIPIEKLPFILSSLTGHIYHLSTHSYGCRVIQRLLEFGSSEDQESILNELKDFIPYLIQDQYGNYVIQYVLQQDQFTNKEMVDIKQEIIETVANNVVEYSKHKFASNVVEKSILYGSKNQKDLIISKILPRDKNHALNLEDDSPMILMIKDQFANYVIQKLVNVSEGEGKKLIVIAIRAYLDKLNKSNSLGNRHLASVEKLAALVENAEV

[2] = target: T1, Puf3-Flag (C-terminal Flag tag) (S. cerevisiae); experiment: co-IP; Flag immunoprecipitation of Pbp1-Flag or Puf3-Flag from yeast grown in YPD or switched to YPL for 3 h; beads treated with or without RNase If for 15 min

binding [1]: binds
binding [2]: binds
B1: Pbp1-HA (C-terminal HA tag) (protein, UniProt P53297 1-722)
chain: MKGNFRKRDSSTNSRKGGNSDSNYTNGGVPNQNNSSMFYENPEITRNFDDRQDYLLANSIGSDVTVTVTSGVKYTGLLVSCNLESTNGIDVVLRFPRVADSGVSDSVDDLAKTLGETLLIHGEDVAELELKNIDLSLDEKWENSKAQETTPARTNIEKERVNGESNEVTKFRTDVDISGSGREIKERKLEKWTPEEGAEHFDINKGKALEDDSASWDQFAVNEKKFGVKSTFDEHLYTTKINKDDPNYSKRLQEAERIAKEIESQGTSGNIHIAEDRGIIIDDSGLDEEDLYSGVDRRGDELLAALKSNSKPNSNKGNRYVPPTLRQQPHHMDPAIISSSNSNKNENAVSTDTSTPAAAGAPEGKPPQKTSKNKKSLSSKEAQIEELKKFSEKFKVPYDIPKDMLEVLKRSSSTLKSNSSLPPKPISKTPSAKTVSPTTQISAGKSESRRSGSNISQGQSSTGHTTRSSTSLRRRNHGSFFGAKNPHTNDAKRVLFGKSFNMFIKSKEAHDEKKKGDDASENMEPFFIEKPYFTAPTWLNTIEESYKTFFPDEDTAIQEAQTRFQQRQLNSMGNAVPGMNPAMGMNMGGMMGFPMGGPSASPNPMMNGFAAGSMGMYMPFQPQPMFYHPSMPQMMPVMGSNGAEEGGGNISPHVPAGFMAAGPGAPMGAFGYPGGIPFQGMMGSGPSGMPANGSAMHSHGHSRNYHQTSHHGHHNSSTSGHK
